Data reported in patent US10435385B2, “Amide derivatives, process for preparation thereof and use thereof as insecticide” (MITSUI CHEMICALS, INC., priority 2004, dated 2019).
Some results were stated once for a whole list of compounds, not compound by compound.

How the values were obtained:
[1] = tested on: common cutworm (Spodoptera litura); experiment: Insecticidal testing against common cutworm (cabbage leaf dip, second-stage larvae); format: in vivo; conditions: concentration of 100 ppm, survival rate investigated after 3 days, 25° C.
Protocol: (§1) Insecticidal Testing Against Common Cutworm (Spodoptera litura) Cabbage leaves were immersed in a liquid comprising the testing compound to a predetermined concentration for 30 seconds and air-dried. They were placed in a 7-cm polyethylene cup, and the second-stage larvae of common cutworm were left therein. The cup was placed in a constant-temperature room at 25° C., and the survival rate was investigated after 3 days. The test was carried out with two groups of 5 larvae per group. As a result, Compound No. (to be described later)

[2] = tested on: diamondback moth (Plutella xylostella); experiment: Insecticidal testing against diamondback moth (cabbage leaf dip, second-stage larvae); format: in vivo; conditions: concentration of 100 ppm, survival rate investigated after 3 days, 25° C.
Protocol: as §1, with “Diamondback Moth (Plutella xylostella)” for “Common Cutworm (Spodoptera litura)”, “diamondback moth” for “common cutworm”

With `O=C(Nc1c(Br)cc(C(F)(F)C(F)(F)F)cc1Br)c1cccc(NC(=O)c2ccccc2F)c1` [compound 5] the pesticidal rate [1] was at least 70% and the pesticidal rate [2] was at least 70%.
Work on `Cc1cc(SC(F)(F)C(F)(F)C(F)(F)F)cc(C)c1NC(=O)c1cccc(NC(=O)c2ccccc2)c1F` [compound 791] yielded a pesticidal rate [1] of at least 70% and a pesticidal rate [2] of at least 70%.
With `Cc1cc(C(F)(C(F)(F)F)C(F)(F)F)cc(C)c1NC(=O)c1cccc(N(C)C(=O)c2ccccc2C#N)c1F` [compound 1215] the pesticidal rate [2] was at least 70%.
`Cc1ccccc1C(=O)Nc1cccc(C(=O)Nc2c(C)cc(C(F)(C(F)(F)F)C(F)(F)F)cc2C)c1` [compound 11] gave a pesticidal rate [1] of at least 70% and a pesticidal rate [2] of at least 70%.
Compound `O=C(Nc1cccc(C(=O)Nc2c(Br)cc(SC(F)(F)C(F)(F)C(F)(F)F)cc2Br)c1F)c1ccccc1` [compound 708] has a pesticidal rate [1] of at least 70% and a pesticidal rate [2] of at least 70%.
Compound `Cc1cc(C(F)(C(F)(F)F)C(F)(F)F)cc(C)c1NC(=O)c1cccc(NC(=O)c2ccccc2)c1` [Compound No. 10, N-(2,6-dimethyl-4-heptafluoroisopropyl)phenyl 3-(benzoylamino)benzamide] has a pesticidal rate [1] of at least 70% and a pesticidal rate [2] of at least 70%.
With `Cc1cc(C(F)(C(F)(F)F)C(F)(F)F)cc(C)c1NC(=O)c1cccc(NC(=O)c2ccc([N+](=O)[O-])cc2)c1` [Compound No. 33] the pesticidal rate [1] was at least 70% and the pesticidal rate [2] was at least 70%.
`Cc1cc(OC(C(F)(F)F)C(F)(F)F)nc(Br)c1NC(=O)c1cccc(NC(=O)c2ccccc2F)c1` [compound 466] gave a pesticidal rate [1] of at least 70% and a pesticidal rate [2] of at least 70%.
`O=C(Nc1cccc(C(=O)Nc2c(Br)cc(SC(F)(F)C(F)(F)C(F)(F)F)cc2Br)c1F)c1ccccc1F` [compound 711] was tested, and the pesticidal rate [1] was at least 70% and the pesticidal rate [2] was at least 70%.
Compound `Cc1cc(C(F)(C(F)(F)F)C(F)(F)F)cc(C)c1NC(=O)c1cccc(NC(=O)c2ccc(Br)s2)c1` [compound 140] has a pesticidal rate [1] of at least 70%.
Compound `Cc1cc(OC(C(F)(F)F)C(F)(F)F)nc(I)c1NC(=O)c1cccc(NC(=O)c2ccccc2)c1` [compound 467] has a pesticidal rate [1] of at least 70% and a pesticidal rate [2] of at least 70%.
With `Cc1cc(C(F)(C(F)(F)F)C(F)(F)F)cc(C)c1NC(=O)c1cccc(NC(=O)c2ccc([N+](=O)[O-])cc2[N+](=O)[O-])c1` [compound 70] the pesticidal rate [1] was at least 70% and the pesticidal rate [2] was at least 70%.
Compound `Cc1cc(C(F)(C(F)(F)F)C(F)(F)F)cc(C)c1NC(=O)c1cccc(NC(=O)c2cc3ccccc3o2)c1` [compound 129] has a pesticidal rate [1] of at least 70%.
Compound `Cc1cc(C(F)(C(F)(F)F)C(F)(F)F)cc(C)c1NC(=O)c1cc(NC(=O)c2ccccc2)cc(C(F)(F)F)c1` [compound 658] has a pesticidal rate [1] of at least 70%.
Compound `Cc1cc(C(F)(C(F)(F)F)C(F)(F)F)cc(C)c1NC(=O)c1cccc(NC(=O)c2csc([N+](=O)[O-])c2)c1` [compound 135] has a pesticidal rate [2] of at least 70%.
With `CS(=O)(=O)c1cc(C(F)(C(F)(F)F)C(F)(F)F)cc(Br)c1NC(=O)c1cccc(NC(=O)c2ccccc2)c1` [compound 203] the pesticidal rate [2] was at least 70%.
`CCc1ccc(C(=O)Nc2cccc(C(=O)Nc3c(C)cc(C(F)(C(F)(F)F)C(F)(F)F)cc3C)c2)cc1` [compound 16] gave a pesticidal rate [1] of at least 70%.
Compound `Cc1cc(C(F)(C(F)(F)F)C(F)(F)F)cc(C)c1NC(=O)c1cccc(NC(=O)c2cc(C(F)(F)F)ccc2F)c1` [compound 81] has a pesticidal rate [1] of at least 70%.
`COc1cc(OC)cc(C(=O)Nc2cccc(C(=O)Nc3c(C)cc(C(F)(C(F)(F)F)C(F)(F)F)cc3C)c2)c1` [compound 73] was tested, and the pesticidal rate [1] was at least 70%.
With `CCCCc1cc(C(F)(C(F)(F)F)C(F)(F)F)cc(Br)c1NC(=O)c1cccc(NC(=O)c2ccccc2)c1` [compound 189] the pesticidal rate [1] was at least 70%.
Compound `CCC(C)c1cc(C(F)(C(F)(F)F)C(F)(F)F)cc(Br)c1NC(=O)c1cccc(NC(=O)c2ccccc2F)c1` (centres unmarked) [compound 195] has a pesticidal rate [1] of at least 70%.
Work on `CCCCc1cc(C(F)(C(F)(F)F)C(F)(F)F)cc(I)c1NC(=O)c1cccc(NC(=O)c2ccccc2)c1` [compound 191] yielded a pesticidal rate [1] of at least 70%.
With `O=C(Nc1c(Br)cc(SC(F)(F)F)cc1Br)c1cccc(NC(=O)c2c(F)cccc2F)c1` [compound 257] the pesticidal rate [1] was at least 70%.
`Cc1cc(C(F)(C(F)(F)F)C(F)(F)F)cc(C)c1NC(=O)c1cccc(NC(=O)c2ccc(N(C)C)cc2)c1` [compound 47] showed a pesticidal rate [2] of at least 70%.
In the case of `Cc1cc(C(F)(C(F)(F)F)C(F)(F)F)cc(C)c1NC(=O)c1cccc(NC(=O)c2ccoc2)c1` [compound 126], the pesticidal rate [1] is reported as at least 70%.
`Cc1cc(C(F)(C(F)(F)F)C(F)(F)F)cc(C)c1NC(=O)c1cccc(NC(=O)c2cc(Cl)cnc2Cl)c1` [compound 117] was tested, and the pesticidal rate [1] was at least 70%.
`CCCCc1cc(C(F)(C(F)(F)F)C(F)(F)F)cc(Cl)c1NC(=O)c1cccc(NC(=O)c2ccccc2F)c1` [compound 188] gave a pesticidal rate [1] of at least 70%.
For `Cc1cc(C(F)(C(F)(F)F)C(F)(F)F)cc(C)c1N(C(=O)c1cccc(NC(=O)c2ccccc2)c1)C(C)C` [compound 1483], the pesticidal rate [1] was at least 70%.
For `CCC(C)c1cc(C(F)(C(F)(F)F)C(F)(F)F)cc(Cl)c1NC(=O)c1cccc(NC(=O)c2ccccc2)c1` (centres unmarked) [compound 193], the pesticidal rate [1] was at least 70%.
`Cc1cc(C(F)(C(F)(F)F)C(F)(F)F)cc(C)c1NC(=O)c1cccc(NC(=O)c2cccc(N(C)C)c2)c1` [Compound No. 46] showed a pesticidal rate [1] of at least 70%.
`COc1cccc(C(=O)Nc2cccc(C(=O)Nc3c(C)cc(C(F)(C(F)(F)F)C(F)(F)F)cc3C)c2)c1` [compound 42] gave a pesticidal rate [1] of at least 70%.
Compound `Cc1ccc(C(=O)Nc2cccc(C(=O)Nc3c(C)cc(C(F)(C(F)(F)F)C(F)(F)F)cc3C)c2)s1` [compound 136] has a pesticidal rate [1] of at least 70%.
`Cc1cc(C(=O)Nc2cccc(C(=O)Nc3c(C)cc(C(F)(C(F)(F)F)C(F)(F)F)cc3C)c2)ccc1[N+](=O)[O-]` [compound 74] showed a pesticidal rate [1] of at least 70%.
`Cc1cc(C(F)(C(F)(F)F)C(F)(F)F)cc(C)c1NC(=O)c1cccc(NC(=O)c2ccco2)c1` [compound 125] was tested, and the pesticidal rate [1] was at least 70%.
`O=C(Nc1c(Br)cc(SC(F)(F)C(F)(F)C(F)(F)F)cc1Br)c1cccc(NC(=O)c2ccc([N+](=O)[O-])cc2[N+](=O)[O-])c1` [compound 288] showed a pesticidal rate [1] of at least 70%.
`CCc1ccccc1C(=O)Nc1cccc(C(=O)Nc2c(C)cc(C(F)(C(F)(F)F)C(F)(F)F)cc2C)c1` [Compound No. 14] was tested, and the pesticidal rate [1] was at least 70%.
In the case of `CCCCc1cc(C(F)(C(F)(F)F)C(F)(F)F)cc(I)c1NC(=O)c1cccc(NC(=O)c2ccccc2F)c1` [compound 192], the pesticidal rate [1] is reported as at least 70%.
In the case of `Cc1cc(C(F)(C(F)(F)F)C(F)(F)F)cc(C)c1NC(=O)c1cc(NC(=O)c2ccccc2)ccc1Br` [compound 661], the pesticidal rate [1] is reported as at least 70%.
In the case of `Cc1cc(C(F)(C(F)(F)F)C(F)(F)F)cc(C)c1NC(=O)c1cccc(NC(=O)c2ccc3ccccc3c2)c1` [compound 99], the pesticidal rate [1] is reported as at least 70%.
`Cc1cc(C(F)(C(F)(F)F)C(F)(F)F)cc(C)c1NC(=O)c1cccc(NC(=O)c2ccccc2-c2ccccc2)c1` [compound 96] gave a pesticidal rate [1] of at least 70%.
`Cc1cc(C(F)(C(F)(F)F)C(F)(F)F)cc(C)c1NC(=O)c1cccc(NC(=O)c2cn(C)nc2[N+](=O)[O-])c1` [Compound No. 147] gave a pesticidal rate [2] of at least 70%.
Work on `Cc1cc(C(F)(C(F)(F)F)C(F)(F)F)cc(C)c1NC(=O)c1cccc(NC(=O)c2ccc([N+](=O)[O-])c([N+](=O)[O-])c2)c1` [compound 71] yielded a pesticidal rate [1] of at least 70%.
In the case of `O=C(Nc1cccc(C(=O)Nc2c(Br)cc(S(=O)(=O)C(F)(F)C(F)(F)C(F)(F)F)cc2Br)c1)c1ccccc1` [compound 380], the pesticidal rate [1] is reported as at least 70%.
Compound `Cc1nc(C)c(C(=O)Nc2cccc(C(=O)Nc3c(C)cc(C(F)(C(F)(F)F)C(F)(F)F)cc3C)c2)s1` [compound 154] has a pesticidal rate [2] of at least 70%.
Work on `Cc1cc(C(F)(C(F)(F)F)C(F)(F)F)cc(C)c1NC(=O)c1cccc(NC(=O)c2cc(N)ccc2F)c1` [compound 75] yielded a pesticidal rate [1] of at least 70%.
`Cc1ccc(C(=O)Nc2cccc(C(=O)Nc3c(Br)cc(SC(F)(F)C(F)(F)C(F)(F)F)cc3Br)c2)c(Cl)n1` [compound 314] showed a pesticidal rate [2] of at least 70%.
`Cc1cc(C(F)(C(F)(F)F)C(F)(F)F)cc(C)c1NC(=O)c1cccc(NC(=O)c2ccc(OC(F)(F)F)cc2)c1` [compound 48] showed a pesticidal rate [1] of at least 70%.
`Cn1cc(C(=O)Nc2cccc(C(=O)Nc3c(Br)cc(SC(F)(F)C(F)(F)C(F)(F)F)cc3Br)c2)c(C(F)(F)F)n1` [compound 318] gave a pesticidal rate [2] of at least 70%.
`CSCc1cc(C(F)(C(F)(F)F)C(F)(F)F)cc(C(F)(F)F)c1NC(=O)c1cccc(NC(=O)c2ccccc2)c1` [compound 209] was tested, and the pesticidal rate [2] was at least 70%.
`Cc1ccc(C(=O)Nc2cccc(C(=O)Nc3c(C)cc(C(F)(C(F)(F)F)C(F)(F)F)cc3C)c2)c(C)c1` [compound 57] was tested, and the pesticidal rate [1] was at least 70%.
`CCCCc1cc(C(F)(C(F)(F)F)C(F)(F)F)cc(Cl)c1NC(=O)c1cccc(NC(=O)c2ccccc2)c1` [compound 187] showed a pesticidal rate [1] of at least 70%.
`Cc1cc(C(F)(C(F)(F)F)C(F)(F)F)cc(C)c1NC(=O)c1cccc(NC(=O)c2ccc(Cl)nc2Cl)c1` [compound 118] showed a pesticidal rate [2] of at least 70%.
`Cc1cc(C(F)(C(F)(F)F)C(F)(F)F)cc(C)c1NC(=O)c1cccc(NC(=O)c2ccc(I)cc2)c1` [compound 28] gave a pesticidal rate [1] of at least 70%.
`Cc1cc(C(F)(C(F)(F)F)C(F)(F)F)cc(C)c1NC(=O)c1ccc(Cl)c(NC(=O)c2ccccc2)c1` [compound 649] gave a pesticidal rate [1] of at least 70%.
For `CCCCc1cc(C(F)(C(F)(F)F)C(F)(F)F)cc(Br)c1NC(=O)c1cccc(NC(=O)c2ccccc2F)c1` [compound 190], the pesticidal rate [1] was at least 70%.
